Data as given in patent US5780589A, “Ultraselective opioidmimetic peptides and pharmacological and therapeutic uses thereof” (The United States of America as represented by the …, priority 1994, dated 1998).
“Also recorded” adds a separate entry of the source. Not every detail of the peptide structures is certain; ends, links or a residue may be inferred. Non-standard residues stand in square brackets, D forms with d. Residues, ends and D or L forms follow the SMILES beside them. Dmt = Cc1cc(O)cc(C)c1C[C@H](N)C(=O)O; Tic = O=C(O)[C@@H]1Cc2ccccc2CN1

The chains behind the UniProt entries cited, without tags or fusion partners. Where a name states a change or a piece, a line headed by the entry shows the natural chain unless it says otherwise.
UniProt P33533, whole entry: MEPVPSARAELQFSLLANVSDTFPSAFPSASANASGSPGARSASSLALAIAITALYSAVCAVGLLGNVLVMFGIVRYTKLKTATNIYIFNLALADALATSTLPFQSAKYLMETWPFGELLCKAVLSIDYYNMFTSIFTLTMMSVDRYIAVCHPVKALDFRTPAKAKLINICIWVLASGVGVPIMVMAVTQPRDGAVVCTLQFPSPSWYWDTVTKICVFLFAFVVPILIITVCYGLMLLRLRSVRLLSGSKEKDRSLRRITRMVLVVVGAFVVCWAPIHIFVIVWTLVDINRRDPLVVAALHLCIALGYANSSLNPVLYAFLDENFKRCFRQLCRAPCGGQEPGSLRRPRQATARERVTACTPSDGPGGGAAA

Tests used:
mice = assay: Tail flick test (TFT), analgesia and morphine antagonism in mice; format: in vivo, CD-1 mice
Protocol: Animal procedures were conducted under protocols approved by the Animal Use and Care Committee, NIEHS, an AALAC accredited facility. Tail flick test (TFT) used a radiant heat source on the tail of Fisher 344 rats or CD-1 mice (52). The response was standardized by the subcutaneous (sc) injection of 5 mg morphine sulfate/kilogram (Kg) body weight or 0.1-0.25 mg morphine/Kg body weight by iv injection; peptides were injected in 100 μL volume in sterile saline. […] Intrathecal injection of peptides in mice used the method of Hylden and Wilcox (53). A base-line and cut-off 10 sec were determined in the TFT with naive and morphine-dosed animals, respectively,to prevent damage to the tail. 1 μg to 10 mg per kilogram of animal was used for iv, icv or sc; higher doses in the mg range were used for sc injection.

rats = assay: Tail flick test (TFT), morphine treated rats; format: in vivo, Fisher 344 rats; conditions: post-injection of peptide to morphine treated rats
δ receptor = target: T1, δ receptor (Rattus norvegicus, UniProt P33533); assay: Multi-site (one- vs two-site) δ receptor binding analysis
T1 construct: Rat membrane synaptosome preparations (P2 fraction) were prepared as detailed previously; from tissue; host or cells: rat synaptosomal membranes (P2 fraction)
Protocol: Rat membrane synaptosome preparations (P2 fraction) were prepared as detailed previously, which included a preincubation step to reduce the presence of endogenous ligands and binding of G proteins (33,40). […] Samples were rapidly filtered through wetted glass fiber filters and thoroughly washed with 6 mL (3×2 mL) ice-cold 50 mM Tris-HCl, pH 7.5, containing 0.01-0.1% chicken egg albumin or bovine serum albumin. […] The filters were dried at 70° C. and the radioactivity determined after an overnight incubation period in CytoScint to maximize the radioactivity detected and reduce variability between samples. The IC50 values were converted to affinity constants (Ki) according to Cheng and Prusoff (48).
Multi-site binding analyses, based on stringent statistical methods, were performed as described in Bryant et al. (41) and Attila et al. (49). Receptor assays were conducted in triplicate with 25-35 graded concentrations of peptide; the resulting curves were both individually assessed and combined from several distinct assays, and analyzed using Prism™ (v. 1.02, GraphPad, San Diego, Calif.).

Cc1cc(O)cc(C)c1C[C@H](N)C(=O)N1Cc2ccccc2C[C@H]1C(=O)N[C@@H](C)C(=O)O [Peptide 8, Dmt-Tic-Ala-OH] (H-[Dmt]-[Tic]-Ala-OH)
prevention of a morphine challenge (mice; peptide treated mice): ineffective
analgesia in tail flick test (mice; sc injection, 100 μg per mouse where stated): produced analgesia; also recorded: significant analgesia
reversal of the analgesic effect of morphine (rats): failed to reverse

Cc1cc(O)cc(C)c1C[C@H](N)C(=O)N[C@H](C)C(=O)N[C@@H](Cc1ccccc1)C(=O)N[C@@H](CCC(=O)O)C(=O)N[C@H](C(=O)N[C@H](C(=O)NCC(N)=O)C(C)C)C(C)C [[Dmt^1]Deltorphin B, reference compound]
Hill coefficient (n), δ receptors (δ receptor; Salvadori et al., unpublished observations): 0.792±0.030
δ receptor binding model fitted (δ receptor; one-site vs two-site): two-site binding model
